For the assay, the target named is BRASSINOSTEROID … 1 (BRI1)-GFP (Arabidopsis thaliana) (UniProt O22476). Description: co-IP.

No constants are given. Whether binding was seen depends on the method and setting. Binding seen in cells or lysates may run through a third protein. Some binding calls cover weakened binding; strength is not graded here.

From publication doi:10.1101/2024.03.28.587199 come the findings set out here.

B1: BRASSINOSTEROID … 1 (BRI1)-ASSOCIATED KINASE 1 (BAK1) (receptor, UniProt Q94F62 26-615)
chain: NAEGDALSALKNSLADPNKVLQSWDATLVTPCTWFHVTCNSDNSVTRVDLGNANLSGQLVMQLGQLPNLQYLELYSNNITGTIPEQLGNLTELVSLDLYLNNLSGPIPSTLGRLKKLRFLRLNNNSLSGEIPRSLTAVLTLQVLDLSNNPLTGDIPVNGSFSLFTPISFANTKLTPLPASPPPPISPTPPSPAGSNRITGAIAGGVAAGAALLFAVPAIALAWWRRKKPQDHFFDVPAEEDPEVHLGQLKRFSLRELQVASDNFSNKNILGRGGFGKVYKGRLADGTLVAVKRLKEERTQGGELQFQTEVEMISMAVHRNLLRLRGFCMTPTERLLVYPYMANGSVASCLRERPESQPPLDWPKRQRIALGSARGLAYLHDHCDPKIIHRDVKAANILLDEEFEAVVGDFGLAKLMDYKDTHVTTAVRGTIGHIAPEYLSTGKSSEKTDVFGYGVMLLELITGQRAFDLARLANDDDVMLLDWVKGLLKEKKLEALVDVDLQGNYKDEEVEQLIQVALLCTQSSPMERPKMSEVVRMLEGDGLAERWEEWQKEEMFRQDFNYPTHHPAVSGWIIGDSTSQIENEYPSGPR
For B1, the binding result was “binds”.
